Test results: patent US20100144755A1 (Glaxo Group Limited, priority 2006, published 2010)
For some assays here: At least one compound was matched to its structure with a doubt left. Some entries share one result that the patent states for a list of compounds.

The chains behind the UniProt entries cited, without tags or fusion partners.
UniProt Q16539, whole entry: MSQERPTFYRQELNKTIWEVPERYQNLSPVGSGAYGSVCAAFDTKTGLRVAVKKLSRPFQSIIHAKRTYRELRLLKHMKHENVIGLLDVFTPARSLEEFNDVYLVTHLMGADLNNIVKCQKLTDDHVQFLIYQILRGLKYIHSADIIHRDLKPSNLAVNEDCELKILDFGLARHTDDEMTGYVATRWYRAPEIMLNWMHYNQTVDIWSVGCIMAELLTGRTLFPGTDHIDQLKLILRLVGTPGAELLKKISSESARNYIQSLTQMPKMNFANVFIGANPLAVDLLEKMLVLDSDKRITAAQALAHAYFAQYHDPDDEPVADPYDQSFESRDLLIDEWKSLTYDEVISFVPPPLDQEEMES

Tests used:
[1] = system: influx of neutrophils to the lung in LPS-challenged rats; experiment: Rat LPS neutrophilia model; format: in vivo; details: LPS aerosol, intratracheal dosing, in at least one of the range of conditions tested, significance p<0.05
Description: Rat LPS Neutrophilia Model
The effect of compounds on the influx of neutrophils to the lung in LPS-challenged rats is evaluated as follows. The test compound is suspended in one of the following solutions: 0.5% tween 80/PBS, 0.5% tween 80/saline, 10% EtOH/saline (with pH adjusted to 2.0, or 8.0 with HCl, or unadjusted), Saline @pH 2.0, 6.5 or 8.0, 0.5% Tragacanth, 1% DMSO/20% Encapsin/Saline, or acidified 5% Tragacanth. The suspension process may be aided by the use of a glass homogenizer. For intratracheal administration, the animals are anesthetized with inhaled isoflurane and placed in a supine position, the trachea is intubated with a steel gavage needle (1.5 inch, 22 gauge, small ball) or a Penn-Century Microsprayer Aerosolizer (model IA-1B) and 200 ul of dosing solution is delivered. The animals are visually monitored during the recovery process, which typically occurs within two minutes. It is noted that the test compounds may be alternatively administered via the microsprayer in a dry powder blend with a suitable excipient, such as lactose.
Rats treated with compound or vehicle (15 min-24 hours pretreatment) are exposed to an LPS aerosol (100 ug/ml) for 15 min. […] The harvested cells are stained (Diffquick) and counted to determine total and differential cell data. […] Inhibition of neutrophil levels relative to no compound controls is calculated based on the differential counts. […]

[2] = target: T1, Recombinant human p38α (Homo sapiens, UniProt Q16539); experiment: Time-resolved fluorescence resonance energy transfer (TR-FRET) kinase assay (standard and low volume); format: biochemical; design: key: active: a pIC50 of greater than 4.6 up to about a pIC50 of greater than 10.0; details: MKK6-activated p38α 100 pM, GST-ATF2 substrate; result in words
T1 construct: His; made in house
Description: Time-Resolved Fluorescence Resonance Energy Transfer Linase Standard Assay
(§1) Recombinant human p38α was expressed as a His-tagged protein. To activate this protein, 3 μM unactivated p38α was incubated in 200 mM Hepes pH 7.4, 625 mM NaCl, 1 mM DTT with 27 nM active MKK6 (Upstate), 1 mM ATP and 10 mM MgCl2 The activity of the MKK6-activated p38α was assessed using a time-resolved fluorescence resonance energy transfer (TR-FRET) assay.
Biotinylated-GST-ATF2 (residues 19-96, 400 nM final), ATP ([…]) and MgCl2 (5 mM final) in assay buffer (40 mM HEPES pH 7.4, 1 mM DTT) were added to wells containing 1 ul of various concentrations of compound or DMSO vehicle (3% final) in NUNC 384 well black plate. The reaction was initiated by the addition of MKK6-activated p38 (100 pM final) to give a total volume of 30 ul. The reaction was incubated for 120 minutes at room temperature, then terminated by the addition of 15 μl of 100 mM EDTA pH 7.4. Detection reagent (15 μl) in buffer (100 mM HEPES pH 7.4, 150 mM NaCl, 0.1% w/v BSA, 1 mM DTT) containing antiphosphothreonine-ATF2-71 polyclonal antibody (Cell Signalling Technology, Beverly Mass., USA) labelled with W-1024 europium chelate (Wallac O Y, Turku, Finland), and APC-labelled streptavidin (Prozyme, San Leandro, Calif., USA) was added and the reaction was further incubated for 60 minutes at room temperature. The degree of phosphorylation of GST-ATF2 was measured using a Packard Discovery plate reader (Perkin-Elmer Life Sciences, Pangbourne, UK) as a ratio of specific 665 nm energy transfer signal to reference europium 620 nm signal.
Time-Resolved Fluorescence Resonance Energy Transfer Kinase Low Volume Assay
as §1, with “pH7.4,” for “pH 7.4,”
Biotinylated-GST-ATF2 (residues 19-96, 400 nM final), ATP (125 μM final) and MgCl2 (5 mM final) in assay buffer (40 mM HEPES pH 7.4, 1 mM DTT) were added to wells containing 0.1 μl of various concentrations of compound or DMSO vehicle (1.7% final) in Greiner low volume 384 well black plate. The reaction was initiated by the addition of MKK6-activated p38α (100 pM final) to give a total volume of 6 μl. The reaction was incubated for 120 minutes at room temperature, then terminated by the addition of 3 μl of detection reagent in buffer (100 mM HEPES pH 7.4, 150 mM NaCl, 0.1% w/v BSA, 1 mM DTT, 100 mM EDTA) containing antiphosphothreonine-ATF2-71 polyclonal antibody (Cell Signalling Technology, Beverly Mass., USA) labelled with W-1024 europium chelate (Wallac O Y, Turku, Finland), and APC-labelled streptavidin (Prozyme, San Leandro, Calif., USA). The reaction was further incubated for 60 minutes at room temperature. The degree of phosphorylation of GST-ATF2 was measured using a BMG Rubystar plate reader (BMG, UK) as a ratio of specific 665 nm energy transfer signal to reference europium 620 nm signal.
It is noted that there are two assay formats shown above for the Time-resolved fluorescence resonance energy transfer kinase assay. The only difference between these two assays is the volume used and the plate type. […] The results described herein may have been performed in either assay format and are not differentiated as to which.

Structure (SMILES)	inhibition of neutrophilia [1]	activity (pIC50) in TR-FRET p38α kinase assay [2]
Cc1ccc(C(=O)NC(C)C)cc1-c1nc(N(C)CCN(C)C)nc2c1ccc(=O)n2-c1c(F)cccc1F [Example 100, 3-{8-(2,6-difluorophenyl)-2-[[2-(dimethylamino)ethyl](methyl)amino]-7-oxo-7,8-dihydropyrido[2,3-d]pyrimidin-4-yl}-4-methyl-N-(1-methylethyl)benzamide]	statistically nonsignificant inhibition	–
CCN(CC)CCCNc1nc(-c2cc(C(=O)NCC(=O)NC)ccc2C)c2ccc(=O)n(-c3c(F)cccc3F)c2n1 [Example 158, 3-[2-{[3-(diethylamino)propyl]amino}-8-(2,6-difluorophenyl)-7-oxo-7,8-dihydropyrido[2,3-d]pyrimidin-4-yl]-4-methyl-N-[2-(methylamino)-2-oxoethyl]benzamide]	–	active
